Source: doi:10.64898/2025.12.23.696152 (bioRxiv, 2025)
Results are given in words; binding and its absence hold for the method and conditions named. Some binding calls cover weakened binding; strength is not graded here. Tags and fused reporters may be left off the sequences shown.

Molecular target: T1, KIF5A-mScarlet-Strep-tag II (human KIF5A, full length) (human), Q12840
T1 chain: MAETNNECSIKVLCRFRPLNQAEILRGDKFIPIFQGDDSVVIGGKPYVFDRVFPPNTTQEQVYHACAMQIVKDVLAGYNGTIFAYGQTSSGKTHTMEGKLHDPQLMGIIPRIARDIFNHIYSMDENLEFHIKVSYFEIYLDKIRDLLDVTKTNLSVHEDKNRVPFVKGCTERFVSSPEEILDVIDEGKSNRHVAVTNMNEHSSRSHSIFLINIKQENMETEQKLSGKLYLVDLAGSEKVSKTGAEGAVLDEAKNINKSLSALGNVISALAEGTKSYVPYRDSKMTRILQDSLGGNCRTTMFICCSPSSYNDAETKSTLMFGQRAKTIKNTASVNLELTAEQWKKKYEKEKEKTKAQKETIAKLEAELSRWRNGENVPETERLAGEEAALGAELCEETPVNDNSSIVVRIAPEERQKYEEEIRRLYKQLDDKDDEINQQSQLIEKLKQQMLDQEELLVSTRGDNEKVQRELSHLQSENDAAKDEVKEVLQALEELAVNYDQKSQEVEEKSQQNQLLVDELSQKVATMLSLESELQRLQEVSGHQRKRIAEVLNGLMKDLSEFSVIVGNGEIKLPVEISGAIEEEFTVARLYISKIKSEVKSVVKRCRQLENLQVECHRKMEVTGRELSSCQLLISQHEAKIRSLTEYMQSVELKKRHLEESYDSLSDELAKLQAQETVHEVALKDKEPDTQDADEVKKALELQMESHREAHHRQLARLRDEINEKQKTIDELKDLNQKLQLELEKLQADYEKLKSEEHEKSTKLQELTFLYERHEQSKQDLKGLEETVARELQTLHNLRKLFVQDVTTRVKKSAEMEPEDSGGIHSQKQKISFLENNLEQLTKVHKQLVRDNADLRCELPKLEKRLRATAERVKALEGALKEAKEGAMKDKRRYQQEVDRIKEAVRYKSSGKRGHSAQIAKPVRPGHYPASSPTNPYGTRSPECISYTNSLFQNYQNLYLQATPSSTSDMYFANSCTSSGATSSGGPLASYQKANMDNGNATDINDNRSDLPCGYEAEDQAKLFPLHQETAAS
Test: SEC
Details: remark: other sources report otherwise

B1: KIF5A-mScarlet-Strep-tag II (human KIF5A, full length), Q12840 1-1032 (protein)
chain: MAETNNECSIKVLCRFRPLNQAEILRGDKFIPIFQGDDSVVIGGKPYVFDRVFPPNTTQEQVYHACAMQIVKDVLAGYNGTIFAYGQTSSGKTHTMEGKLHDPQLMGIIPRIARDIFNHIYSMDENLEFHIKVSYFEIYLDKIRDLLDVTKTNLSVHEDKNRVPFVKGCTERFVSSPEEILDVIDEGKSNRHVAVTNMNEHSSRSHSIFLINIKQENMETEQKLSGKLYLVDLAGSEKVSKTGAEGAVLDEAKNINKSLSALGNVISALAEGTKSYVPYRDSKMTRILQDSLGGNCRTTMFICCSPSSYNDAETKSTLMFGQRAKTIKNTASVNLELTAEQWKKKYEKEKEKTKAQKETIAKLEAELSRWRNGENVPETERLAGEEAALGAELCEETPVNDNSSIVVRIAPEERQKYEEEIRRLYKQLDDKDDEINQQSQLIEKLKQQMLDQEELLVSTRGDNEKVQRELSHLQSENDAAKDEVKEVLQALEELAVNYDQKSQEVEEKSQQNQLLVDELSQKVATMLSLESELQRLQEVSGHQRKRIAEVLNGLMKDLSEFSVIVGNGEIKLPVEISGAIEEEFTVARLYISKIKSEVKSVVKRCRQLENLQVECHRKMEVTGRELSSCQLLISQHEAKIRSLTEYMQSVELKKRHLEESYDSLSDELAKLQAQETVHEVALKDKEPDTQDADEVKKALELQMESHREAHHRQLARLRDEINEKQKTIDELKDLNQKLQLELEKLQADYEKLKSEEHEKSTKLQELTFLYERHEQSKQDLKGLEETVARELQTLHNLRKLFVQDVTTRVKKSAEMEPEDSGGIHSQKQKISFLENNLEQLTKVHKQLVRDNADLRCELPKLEKRLRATAERVKALEGALKEAKEGAMKDKRRYQQEVDRIKEAVRYKSSGKRGHSAQIAKPVRPGHYPASSPTNPYGTRSPECISYTNSLFQNYQNLYLQATPSSTSDMYFANSCTSSGATSSGGPLASYQKANMDNGNATDINDNRSDLPCGYEAEDQAKLFPLHQETAAS
For B1, the binding was “binds”.
